Experimental findings from publication PMC11467166 are described below.

Amino acid sequences for entries named in this document (tags omitted). Residues count along the entry.
UniProt Q13263: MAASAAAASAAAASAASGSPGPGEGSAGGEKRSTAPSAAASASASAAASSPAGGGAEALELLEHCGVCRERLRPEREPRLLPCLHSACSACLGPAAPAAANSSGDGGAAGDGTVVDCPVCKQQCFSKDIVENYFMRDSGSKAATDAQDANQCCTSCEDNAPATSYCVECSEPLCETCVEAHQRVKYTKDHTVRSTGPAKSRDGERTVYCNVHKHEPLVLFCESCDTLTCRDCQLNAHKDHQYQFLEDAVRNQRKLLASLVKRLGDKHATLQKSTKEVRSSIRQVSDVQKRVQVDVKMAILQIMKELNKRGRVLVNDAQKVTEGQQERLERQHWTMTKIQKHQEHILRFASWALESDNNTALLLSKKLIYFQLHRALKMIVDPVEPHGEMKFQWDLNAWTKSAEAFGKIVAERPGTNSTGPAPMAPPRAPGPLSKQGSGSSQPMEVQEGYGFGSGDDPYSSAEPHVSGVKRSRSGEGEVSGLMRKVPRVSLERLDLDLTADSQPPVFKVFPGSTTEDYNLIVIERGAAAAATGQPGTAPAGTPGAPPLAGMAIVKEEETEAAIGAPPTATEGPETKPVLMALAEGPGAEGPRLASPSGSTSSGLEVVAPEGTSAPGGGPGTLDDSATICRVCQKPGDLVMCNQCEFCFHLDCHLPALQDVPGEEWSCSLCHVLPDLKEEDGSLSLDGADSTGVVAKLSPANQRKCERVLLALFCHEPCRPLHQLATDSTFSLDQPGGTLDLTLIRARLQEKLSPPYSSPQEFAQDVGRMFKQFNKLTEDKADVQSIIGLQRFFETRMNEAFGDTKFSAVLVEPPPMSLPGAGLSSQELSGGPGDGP
UniProt Q13153, residues 70-117: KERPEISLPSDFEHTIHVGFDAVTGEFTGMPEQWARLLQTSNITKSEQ
UniProt Q06945: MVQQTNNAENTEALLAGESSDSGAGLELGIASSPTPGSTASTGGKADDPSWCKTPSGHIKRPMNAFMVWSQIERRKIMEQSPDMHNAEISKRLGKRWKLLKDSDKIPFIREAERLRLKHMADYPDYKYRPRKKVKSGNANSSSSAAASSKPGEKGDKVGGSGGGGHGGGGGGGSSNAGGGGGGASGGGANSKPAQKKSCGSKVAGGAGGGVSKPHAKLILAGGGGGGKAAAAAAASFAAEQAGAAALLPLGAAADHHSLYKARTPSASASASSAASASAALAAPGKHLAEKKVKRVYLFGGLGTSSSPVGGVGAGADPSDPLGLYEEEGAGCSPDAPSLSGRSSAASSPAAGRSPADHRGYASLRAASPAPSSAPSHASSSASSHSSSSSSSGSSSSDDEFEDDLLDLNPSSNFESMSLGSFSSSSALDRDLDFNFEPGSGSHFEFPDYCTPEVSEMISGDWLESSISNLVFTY
UniProt P60953: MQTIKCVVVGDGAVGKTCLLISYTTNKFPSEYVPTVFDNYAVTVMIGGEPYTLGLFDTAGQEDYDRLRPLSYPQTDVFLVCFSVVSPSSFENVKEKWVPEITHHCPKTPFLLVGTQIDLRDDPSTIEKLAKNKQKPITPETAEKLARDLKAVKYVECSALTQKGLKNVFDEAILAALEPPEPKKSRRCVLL
UniProt P35716: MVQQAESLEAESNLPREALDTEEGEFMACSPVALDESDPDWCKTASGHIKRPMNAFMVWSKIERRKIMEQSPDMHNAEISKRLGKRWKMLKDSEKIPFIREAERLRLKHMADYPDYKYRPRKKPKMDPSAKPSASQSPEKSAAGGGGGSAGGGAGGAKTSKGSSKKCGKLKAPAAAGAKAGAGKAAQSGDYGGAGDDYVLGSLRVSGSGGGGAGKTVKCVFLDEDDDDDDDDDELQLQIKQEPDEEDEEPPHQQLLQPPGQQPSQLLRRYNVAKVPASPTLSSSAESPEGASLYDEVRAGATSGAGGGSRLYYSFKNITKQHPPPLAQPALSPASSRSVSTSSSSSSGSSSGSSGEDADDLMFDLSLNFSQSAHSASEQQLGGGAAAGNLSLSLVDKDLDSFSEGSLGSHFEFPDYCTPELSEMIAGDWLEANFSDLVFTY

Results are given in words; binding and its absence hold for the method and conditions named. Binding seen in cells or lysates may run through a third protein. Some entries that bind do so weakly or less than the wild type.

One assay has as its target HA-TRIM28 (UniProt Q13263). Put plainly: co-IP; U251 cells transfected with SOX4/11 with or without HA-TRIM28; whole cell lysates (1xPBS, 1 mM EDTA, 0.5% Triton X-100) precipitated with anti-HA magnetic beads, 2 h, 4°C; immunoblot for SOX4 and SOX11. A general note: In western blotting, separated proteins are transferred to a membrane and probed.
For another assay, the target named is GST-Pak1 70-117 (UniProt Q13153). The assay can be described thus: pull-down; 60 μg GST-RBD or GST-PBD beads incubated with about 800 μg U251 lysate (50 mM Tris pH 7.6, 150 mM NaCl, 1% Triton X-100, 20 mM MgCl2), 1 h, 4°C; cells taken at 0-7 days after lentiviral infection (SOX4, SOX11, NGN2, NGN2-SOX4, NGN2-SOX11); immunoblot for RhoA, RAC1, CDC42; only the target purified.

For SOX4 (from UniProt Q06945 1-474), the binding entry with HA-TRIM28 is recorded as “binds”. Consider GTP-CDC42 (from UniProt P60953 1-191), for which the binding result with GST-Pak1 70-117 is “binds”. On to SOX11 (from UniProt P35716 1-441), for which the binding entry with HA-TRIM28 is on record as “binds”.
